Assay results taken from patent US12527821B2, “Compositions and methods related to tumor cell killers and vaccines” (THE BRIGHAM AND WOMEN'S HOSPITAL, INC., priority 2018, dated 2026).
At least one structure is not confirmed: it was looked up by name or label, or the drawing left a doubt.

Tests used:
sGBMnRec and sGBMiRec = test: Cell viability of recurrent GBM lines titrated with TMZ and S-TRAIL; format: cell-based, human; settings: compared to the primary GBM cells
[1] = tested on: sGBMn-FmC and sGBMi-FmC intracranial tumors; test: In vivo TMZ treatment of intracranial GBM tumors in SCID mice (BLI)

Cn1nnc2c(C(N)=O)ncn2c1=O [TMZ, temozolomide]
resistance of recurrent GBM lines to TMZ (sGBMnRec and sGBMiRec): increased resistance
response of sGBMn-FmC ([1]; 5 mg/kg/d): incomplete response
therapy response (reduction of tumor cells' BLI signal) ([1]; intraperitoneal TMZ): therapy response was observed
